Results from publication PMC3953403, “Drosophila SNAP-29 Is an Essential SNARE That Binds Multiple Proteins Involved in Membrane Traffic” (PLoS ONE, 2014).
No constants are given. Whether binding was seen depends on the method and setting. Binding seen in cells or lysates may run through a third protein. Tags and fused reporters may be left off the sequences shown.

Molecular target: T1, GST-dSNAP-25 (Drosophila) (UniProt P36975)
T1 sequence: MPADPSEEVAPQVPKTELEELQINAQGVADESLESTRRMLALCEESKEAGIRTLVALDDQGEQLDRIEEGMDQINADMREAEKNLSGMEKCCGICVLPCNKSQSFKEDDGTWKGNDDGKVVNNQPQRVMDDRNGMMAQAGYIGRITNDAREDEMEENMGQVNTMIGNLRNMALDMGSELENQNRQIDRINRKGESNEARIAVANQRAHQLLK
Assay: pull-down; 0.5 mg GST fusion or GST on 120 uL glutathione beads, incubated with pre-cleared S2 cell lysate (PLC or NP40 lysis buffer, 0.1% gelatin, 0.1% BSA); washes 50 mM HEPES pH 7.5, 150 mM NaCl, 2 mM EDTA; western blot; only the target purified

| Substance | binding |
| --- | --- |
| DAP160, endogenous (Drosophila (endogenous in S2 cells)) | no binding (tested: 0.5 mg on 120 uL beads) |
| dEHD1, endogenous (Drosophila (endogenous in S2 cells)) | no binding (tested: 0.5 mg on 120 uL beads) |
